Reference: patent US20240218019A1, “METHODS AND COMPOSITIONS COMPRISING MHC CLASS I PEPTIDES” (BOARD OF REGENTS, THE UNIVERSITY OF TEXAS SYSTEM, priority 2021, published 2024)
Some of these results come from one statement about several compounds together.

Test system: PBMCs from LS Rhesus macaques
Experiment: IFNγ ELISpot assay with PBMCs from LS Rhesus macaques
Assay type: cell-based
Settings: in at least two or more donors
Description: FIG. 22A-B. Validation of the predicted neoAg in LS Rhesus macaques. A) Immunogenicity of neoAg peptide pools and deconvoluted neoAg with ELISpot assay. PBMCs from LS Rhesus macaques (n=4) were stimulated with […] and 12 individual peptides from the pools, concavalin A (+ve control), and DMSO (−ve control) for 48 h. B) ELISpot images. […] Spot forming Units for IFNγ secretion were analyzed and quantitated by ELISpot plate reader.
Since the ultimate goal is to develop a universal LS-cancer vaccine. the inventors then tested the immunogenicity of the ELISpot-reactive peptides in PBMCs from LS Rhesus macaques who carry a pathogenic mutation in the MLH1 gene with pathology similar to human LS. These animals. housed at MD Anderson Cancer Center, spontaneously develop CRC and serve as an ideal preclinical LS model for immune-interception strategies with neoAg vaccines. PBMCs from four different LS Rhesus were stimulated with four peptide pools and 12 individual peptides for ELISpot assays as indicated in FIG. 22A.

| Sequence | SFUs produced, individual peptides |
| --- | --- |
| FLADSGIDPV [WDTC1, WDTC1 neoAg peptide, HLA-A*02:01 restricted] | 25-400 per 10^5 cells |
| FLIDDNFKV [SEQ ID NO 10] | 25-400 per 10^5 cells |
